Measured values reported in the supplement of paper PMC8728848.
Some of the results follow.

Columns and labels:
Assay in all cases: glycan array binding signal (z-score within array); higher = stronger binding
Settings in all cases: glycan notation: IUPAC condensed, linker removed
[1] = molecular target: Neu5Ac(a2-3)Gal(b1-3)[Neu5Ac(a2-3)Gal(b1-4)]GlcNAc
How it was run: (§1)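 Arrays were curated from the Consortium for Functional Glycomics database, 3228 in total, and kept only where the protein sequence was available. Binding is expressed as a within-array Z-score. This score was averaged across arrays of the same protein sequence at different concentrations or buffers and across linkers, and negative values can be read as non-binding.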

[2] = molecular target: Neu5Ac(a2-3)Gal(b1-3)[Neu5Ac(a2-6)]GalNAc
How it was run: as §1

Neu5Ac(a2-3)Gal(b1-4)Glc = molecular target: Neu5Ac(a2-3)Gal(b1-4)Glc
How it was run: as §1

[3] = molecular target: Neu5Ac(a2-3)Gal(b1-4)GlcNAc
How it was run: as §1

[4] = molecular target: Neu5Ac(a2-3)Gal(b1-4)GlcNAc(b1-2)Man(a1-3)[GlcNAc(b1-2)Man(b1-4)GlcNAc(b1-2)Man(a1-6)]Man(b1-4)GlcNAc(b1-4)GlcNAc
How it was run: as §1

[5] = molecular target: Neu5Ac(a2-3)Gal(b1-4)GlcNAc(b1-2)Man(a1-3)[Neu5Ac(a2-6)Gal(b1-4)GlcNAc(b1-2)Man(a1-6)]Man(b1-4)GlcNAc(b1-4)GlcNAc
How it was run: as §1

[6] = molecular target: Neu5Ac(a2-3)Gal(b1-4)GlcNAc(b1-3)Gal(b1-3)GlcNAc
How it was run: as §1

[7] = molecular target: Neu5Ac(a2-3)Gal(b1-4)GlcNAc(b1-3)Gal(b1-4)GlcNAc
How it was run: as §1

[8] = molecular target: Neu5Ac(a2-3)Gal(b1-4)GlcNAc(b1-3)Gal(b1-4)GlcNAc(b1-3)Gal(b1-4)GlcNAc
How it was run: as §1

[9] = molecular target: Neu5Ac(a2-3)Gal(b1-4)GlcNAc(b1-3)Gal(b1-4)[Fuc(a1-3)]GlcNAc
How it was run: as §1

[10] = molecular target: Neu5Ac(a2-3)Gal(b1-4)GlcNAc(b1-3)GalNAc
How it was run: as §1

[11] = molecular target: Neu5Ac(a2-3)Gal(b1-4)GlcNAc(b1-6)[Gal(b1-3)]GalNAc
How it was run: as §1

[12] = molecular target: Neu5Ac(a2-3)Gal(b1-4)GlcNAc(b1-6)[Neu5Ac(a2-3)Gal(b1-3)]GalNAc
How it was run: as §1

[13] = molecular target: Neu5Ac(a2-3)Gal(b1-4)GlcNAc6S
How it was run: as §1

[14] = molecular target: Neu5Ac(a2-3)Gal(b1-4)[Fuc(a1-3)]GlcNAc
How it was run: as §1

[15] = molecular target: Neu5Ac(a2-3)Gal(b1-4)[Fuc(a1-3)]GlcNAc(b1-3)Gal
How it was run: as §1

[16] = molecular target: Neu5Ac(a2-3)Gal(b1-4)[Fuc(a1-3)]GlcNAc(b1-3)Gal(b1-4)GlcNAc
How it was run: as §1

[17] = molecular target: Neu5Ac(a2-3)Gal(b1-4)[Fuc(a1-3)]GlcNAc(b1-3)Gal(b1-4)[Fuc(a1-3)]GlcNAc(b1-3)Gal(b1-4)[Fuc(a1-3)]GlcNAc
How it was run: as §1

[18] = molecular target: Neu5Ac(a2-3)Gal(b1-4)[Fuc(a1-3)]GlcNAc(b1-3)GalNAc
How it was run: as §1

[19] = molecular target: Neu5Ac(a2-3)Gal(b1-4)[Fuc(a1-3)]GlcNAc(b1-6)[Gal(b1-3)]GalNAc
How it was run: as §1

[20] = molecular target: Neu5Ac(a2-3)Gal(b1-4)[Fuc(a1-3)]GlcNAc(b1-6)[Neu5Ac(a2-3)Gal(b1-3)]GalNAc
How it was run: as §1

[21] = molecular target: Neu5Ac(a2-3)Gal(b1-4)[Fuc(a1-3)]GlcNAc6S
How it was run: as §1

[22] = molecular target: Neu5Ac(a2-3)Gal6S(b1-4)GlcNAc
How it was run: as §1

[23] = molecular target: Neu5Ac(a2-3)Gal6S(b1-4)[Fuc(a1-3)]GlcNAc
How it was run: as §1

Neu5Ac(a2-3)GalNAc = molecular target: Neu5Ac(a2-3)GalNAc
How it was run: as §1

[24] = molecular target: Neu5Ac(a2-3)GalNAc(b1-4)GlcNAc
How it was run: as §1

[25] = molecular target: Neu5Ac(a2-3)[GalNAc(b1-4)]Gal(b1-4)Glc
How it was run: as §1

[26] = molecular target: Neu5Ac(a2-3)[GalNAc(b1-4)]Gal(b1-4)GlcNAc
How it was run: as §1

[27] = molecular target: Neu5Ac(a2-3)[Neu5Ac(a2-6)]GalNAc
How it was run: as §1

Neu5Ac(a2-6)Gal = molecular target: Neu5Ac(a2-6)Gal
How it was run: as §1

Neu5Ac(a2-6)Gal(b1-4)Glc = molecular target: Neu5Ac(a2-6)Gal(b1-4)Glc
How it was run: as §1

[28] = molecular target: Neu5Ac(a2-6)Gal(b1-4)GlcNAc
How it was run: as §1

[29] = molecular target: Neu5Ac(a2-6)Gal(b1-4)GlcNAc(b1-2)Man(a1-3)Man(b1-4)GlcNAc(b1-4)GlcNAc
How it was run: as §1

[30] = molecular target: Neu5Ac(a2-6)Gal(b1-4)GlcNAc(b1-2)Man(a1-3)[Gal(b1-4)GlcNAc(b1-2)Man(a1-6)]Man(b1-4)GlcNAc(b1-4)GlcNAc
How it was run: as §1

[31] = molecular target: Neu5Ac(a2-6)Gal(b1-4)GlcNAc(b1-2)Man(a1-3)[GlcNAc(b1-2)Man(a1-6)]Man(b1-4)GlcNAc(b1-4)GlcNAc
How it was run: as §1

[32] = molecular target: Neu5Ac(a2-6)Gal(b1-4)GlcNAc(b1-2)Man(a1-3)[GlcNAc(b1-2)Man(b1-4)GlcNAc(b1-2)Man(a1-6)]Man(b1-4)GlcNAc(b1-4)GlcNAc
How it was run: as §1

B1: Adiponectin (Rattus norvegicus), Q8K3R4 (protein)
chain: MLLLQALLFLLILPSHEGITATEGPGALVPPPKETCAGWMAGIPGYPGHNGIPGRDGRDGTPGEKGEKGDAGVLGPKGDPGDAGMTGAEGPRGFPGTPGRKGEPGEAAYMYHSAFSVGLETRVTVPNVPIRFTKIFYNQQNHYDGSTGKFHCNIPGLYYFSYHITVYMKDVKVSLFKKDKAVLFTYDQYQEKNVDQASGSMLLHLEVGDQVWLQVYGEGDNNGLYADNVNDSTFTGFLLYHDTN
[1]
  glycan array binding signal (z-score): 2.28
[2]
  glycan array binding signal (z-score): 0.091
Neu5Ac(a2-3)Gal(b1-4)Glc
  glycan array binding signal (z-score): 0.152
[3]
  glycan array binding signal (z-score): -0.179
[4]
  glycan array binding signal (z-score): 0.379
[5]
  glycan array binding signal (z-score): -0.409
[6]
  glycan array binding signal (z-score): 0.26
[7]
  glycan array binding signal (z-score): -0.846
[8]
  glycan array binding signal (z-score): -0.87
[9]
  glycan array binding signal (z-score): -0.42
[10]
  glycan array binding signal (z-score): 0.239
[11]
  glycan array binding signal (z-score): -0.442
[12]
  glycan array binding signal (z-score): -0.944
[13]
  glycan array binding signal (z-score): 0.921
[14]
  glycan array binding signal (z-score): 0.007
[15]
  glycan array binding signal (z-score): -0.168
[16]
  glycan array binding signal (z-score): 1.83
[17]
  glycan array binding signal (z-score): -0.687
[18]
  glycan array binding signal (z-score): 1.34
[19]
  glycan array binding signal (z-score): -0.125
[20]
  glycan array binding signal (z-score): -0.662
[21]
  glycan array binding signal (z-score): 0.564
[22]
  glycan array binding signal (z-score): -0.728
[23]
  glycan array binding signal (z-score): 1.6
Neu5Ac(a2-3)GalNAc
  glycan array binding signal (z-score): -0.478
[24]
  glycan array binding signal (z-score): 0.48
[25]
  glycan array binding signal (z-score): -0.609
[26]
  glycan array binding signal (z-score): -0.816
[27]
  glycan array binding signal (z-score): -0.522
Neu5Ac(a2-6)Gal
  glycan array binding signal (z-score): -0.739
Neu5Ac(a2-6)Gal(b1-4)Glc
  glycan array binding signal (z-score): -0.671
[28]
  glycan array binding signal (z-score): 0.383
[29]
  glycan array binding signal (z-score): 0.717
[30]
  glycan array binding signal (z-score): 0.481
[31]
  glycan array binding signal (z-score): 0.609
[32]
  glycan array binding signal (z-score): -0.035
